This note sets out measurements from patent US20130287702A1 (CASE WESTERN RESERVE UNIVERSITY, published 2013).

Assay [1] deals with T1, proteolytically cleaved PTPµ extracellular fragment in tumors of human LN-229 glioma cells (human) (UniProt P28827).
T1 sequence: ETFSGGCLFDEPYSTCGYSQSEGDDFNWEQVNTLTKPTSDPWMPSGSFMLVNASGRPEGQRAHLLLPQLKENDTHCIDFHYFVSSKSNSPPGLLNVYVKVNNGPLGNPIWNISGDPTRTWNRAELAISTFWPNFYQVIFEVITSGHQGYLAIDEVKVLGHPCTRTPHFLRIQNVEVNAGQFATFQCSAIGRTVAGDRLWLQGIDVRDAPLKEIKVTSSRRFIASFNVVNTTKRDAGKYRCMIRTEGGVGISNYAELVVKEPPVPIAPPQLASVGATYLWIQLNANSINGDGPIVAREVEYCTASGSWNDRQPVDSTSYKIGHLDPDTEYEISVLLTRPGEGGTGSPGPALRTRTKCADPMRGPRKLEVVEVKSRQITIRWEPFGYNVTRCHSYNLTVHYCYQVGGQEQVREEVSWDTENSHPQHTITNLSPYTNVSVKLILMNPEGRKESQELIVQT
The experiment in a line: fluorescent probe labeling (1 µM) of fixed LN-229-GFP flank tumor sections.

The target of assay [2] is T1, proteolytically cleaved PTPµ extracellular fragment in tumors of human LN-229 glioma cells (human). The experiment in a line: in vivo labeling of LN-229-GFP intracranial tumors, cryo-imaging.
For assay [3] the target is unchanged. The assay is described as follows: in vivo labeling of LN-229-GFP xenografts, 3-D cryo-imaging (FIG. 8).

No constants are given. Whether binding was seen depends on the method and setting. Some entries that bind do so weakly or less than the wild type.

Regarding EGDDFNWEQVNTLTKPTSD (Texas Red label; site of attachment not stated) [SBK2-Texas Red probe], in assay [1], the binding entry is recorded as “binds”. On to EGDDFNWEQVNTLTKPTSD (Cy5 NHS ester dye conjugated to the N-terminal glycine residue) [SBK2-Cy5 probe], for which the binding result in assay [2] and in assay [3] was “binds” throughout.
